Test results: PMC2860243
These are yes or no findings as the source states them, for the method shown. Binding seen in cells or lysates may run through a third protein. A yes stands for co-enrichment or nearness to the bait. Other partners may have been found. For some of these results: Where a sequence is shown, tags or fusion partners need not be part of it.

The chains behind the UniProt entries cited, without tags or fusion partners.
UniProt P20263: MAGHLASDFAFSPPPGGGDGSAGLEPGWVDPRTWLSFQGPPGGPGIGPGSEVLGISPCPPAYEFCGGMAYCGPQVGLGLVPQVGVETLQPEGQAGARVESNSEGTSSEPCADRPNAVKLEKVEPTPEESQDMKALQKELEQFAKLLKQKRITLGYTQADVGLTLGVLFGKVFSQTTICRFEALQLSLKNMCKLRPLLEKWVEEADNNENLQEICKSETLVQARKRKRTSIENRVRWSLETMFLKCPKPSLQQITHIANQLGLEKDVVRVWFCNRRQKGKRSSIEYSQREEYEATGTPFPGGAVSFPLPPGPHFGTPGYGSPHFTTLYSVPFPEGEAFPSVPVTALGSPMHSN
UniProt Q8BX22: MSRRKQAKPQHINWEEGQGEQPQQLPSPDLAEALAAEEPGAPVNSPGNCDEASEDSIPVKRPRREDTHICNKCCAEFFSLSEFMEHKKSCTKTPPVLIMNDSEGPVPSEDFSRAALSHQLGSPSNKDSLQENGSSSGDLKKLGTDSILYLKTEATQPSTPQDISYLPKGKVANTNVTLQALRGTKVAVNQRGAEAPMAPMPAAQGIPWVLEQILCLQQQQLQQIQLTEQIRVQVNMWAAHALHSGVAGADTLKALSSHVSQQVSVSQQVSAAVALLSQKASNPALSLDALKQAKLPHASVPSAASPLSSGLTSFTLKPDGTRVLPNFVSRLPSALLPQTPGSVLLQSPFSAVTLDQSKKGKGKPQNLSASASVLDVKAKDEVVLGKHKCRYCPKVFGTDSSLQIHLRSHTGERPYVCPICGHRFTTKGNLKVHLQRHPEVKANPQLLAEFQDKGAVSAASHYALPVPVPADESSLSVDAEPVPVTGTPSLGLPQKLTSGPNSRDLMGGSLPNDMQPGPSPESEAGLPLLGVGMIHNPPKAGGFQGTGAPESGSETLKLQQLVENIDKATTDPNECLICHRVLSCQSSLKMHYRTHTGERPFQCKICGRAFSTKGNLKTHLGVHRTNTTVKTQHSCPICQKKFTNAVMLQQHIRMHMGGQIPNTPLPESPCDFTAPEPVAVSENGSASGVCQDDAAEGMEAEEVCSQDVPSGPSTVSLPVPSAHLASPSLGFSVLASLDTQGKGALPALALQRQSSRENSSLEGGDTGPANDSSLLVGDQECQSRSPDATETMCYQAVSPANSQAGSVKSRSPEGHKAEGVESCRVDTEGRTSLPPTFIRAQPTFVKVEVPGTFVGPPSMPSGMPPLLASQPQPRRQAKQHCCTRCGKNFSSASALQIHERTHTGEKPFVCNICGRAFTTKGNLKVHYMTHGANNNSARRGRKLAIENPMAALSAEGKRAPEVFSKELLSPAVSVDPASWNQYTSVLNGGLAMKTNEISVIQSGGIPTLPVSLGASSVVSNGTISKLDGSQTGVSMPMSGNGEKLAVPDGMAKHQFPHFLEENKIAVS

Key:
[1] = biological target: T1, FLAG-tagged Esrrb (F-Esrrb) (mouse) (UniProt Q61539); experiment: affinity purification with mass spectrometry; FLAG-affinity purification of F-Sall4, F-Dax1, F-Tcfcp2l1 or F-Esrrb from nuclear extract of ZHBTc4-derived ESC clones, buffer C-100, Benzonase, FLAG peptide elution; two purifications each without and with doxycycline (16 hr, Oct4 removed); hits present in both -Dox purifications
T1 sequence: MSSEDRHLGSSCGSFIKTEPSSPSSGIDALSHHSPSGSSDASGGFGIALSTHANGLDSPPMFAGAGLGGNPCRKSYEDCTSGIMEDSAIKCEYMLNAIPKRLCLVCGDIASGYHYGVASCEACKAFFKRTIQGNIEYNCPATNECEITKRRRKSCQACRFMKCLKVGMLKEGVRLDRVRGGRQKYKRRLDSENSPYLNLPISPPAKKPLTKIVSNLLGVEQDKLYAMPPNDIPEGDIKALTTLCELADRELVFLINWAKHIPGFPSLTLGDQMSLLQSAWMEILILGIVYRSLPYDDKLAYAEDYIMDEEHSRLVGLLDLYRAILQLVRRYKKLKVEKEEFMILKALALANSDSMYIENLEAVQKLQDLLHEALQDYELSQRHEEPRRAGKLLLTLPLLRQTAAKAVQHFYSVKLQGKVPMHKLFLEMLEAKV

[2] = biological target: FLAG-Oct4 (F-Oct4) (mouse) (UniProt P20263); experiment: affinity purification with mass spectrometry; FLAG-affinity purification of F-Oct4 from 1.5 ml ESC nuclear extract on anti-FLAG M2 agarose, buffer C-100 (20 mM HEPES pH 7.6, 100 mM KCl), washes with 0.02% NP-40, Benzonase, 4°C, FLAG peptide elution; three purifications; control ZHBTc4 extract
[3] = biological target: T2, FLAG-tagged Tcfcp2l1 (F-Tcfcp2l1) (mouse) (UniProt Q3UNW5); experiment: affinity purification with mass spectrometry; FLAG-affinity purification of F-Sall4, F-Dax1, F-Tcfcp2l1 or F-Esrrb from nuclear extract of ZHBTc4-derived ESC clones, buffer C-100, Benzonase, FLAG peptide elution; two purifications each without and with doxycycline (16 hr, Oct4 removed); hits present in both -Dox purifications
T2 sequence: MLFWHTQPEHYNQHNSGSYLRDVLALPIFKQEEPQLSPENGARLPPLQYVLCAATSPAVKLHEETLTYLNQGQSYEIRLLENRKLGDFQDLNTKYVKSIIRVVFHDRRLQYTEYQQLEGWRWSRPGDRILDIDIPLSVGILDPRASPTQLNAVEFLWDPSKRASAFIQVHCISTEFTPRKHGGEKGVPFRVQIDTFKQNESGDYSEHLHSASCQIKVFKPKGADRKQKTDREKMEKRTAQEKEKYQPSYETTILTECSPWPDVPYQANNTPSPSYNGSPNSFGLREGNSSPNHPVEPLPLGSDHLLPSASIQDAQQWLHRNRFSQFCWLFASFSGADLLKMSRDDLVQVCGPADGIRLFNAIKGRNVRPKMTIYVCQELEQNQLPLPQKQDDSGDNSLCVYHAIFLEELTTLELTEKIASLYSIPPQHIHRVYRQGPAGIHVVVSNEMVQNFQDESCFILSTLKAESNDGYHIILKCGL

[4] = biological target: T3, FLAG-tagged Dax1 (F-Dax1) (mouse) (UniProt Q61066); experiment: as above
T3 sequence: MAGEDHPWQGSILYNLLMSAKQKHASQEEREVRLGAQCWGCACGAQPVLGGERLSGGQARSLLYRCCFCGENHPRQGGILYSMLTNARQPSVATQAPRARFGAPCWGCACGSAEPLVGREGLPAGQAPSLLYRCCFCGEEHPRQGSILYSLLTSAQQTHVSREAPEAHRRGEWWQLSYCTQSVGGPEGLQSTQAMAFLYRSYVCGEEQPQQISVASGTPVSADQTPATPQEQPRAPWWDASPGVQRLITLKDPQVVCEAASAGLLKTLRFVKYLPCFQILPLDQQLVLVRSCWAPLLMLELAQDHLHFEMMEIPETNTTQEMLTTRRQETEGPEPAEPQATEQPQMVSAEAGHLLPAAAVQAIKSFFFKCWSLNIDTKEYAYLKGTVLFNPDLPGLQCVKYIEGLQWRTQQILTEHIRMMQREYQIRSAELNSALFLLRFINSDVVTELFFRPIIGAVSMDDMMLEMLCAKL

[5] = biological target: Oct4 (Pou5f1) (mouse (endogenous in 46C ESCs)) (UniProt P20263); experiment: affinity purification with mass spectrometry; immunoprecipitation of endogenous Oct4 (antibody sc-8628 cross-linked to protein G Sepharose) from 1 ml 46C ESC nuclear extract, Benzonase, washes with C-100*, 4°C, boiled in SDS-loading dye; control goat IgG
[6] = biological target: FLAG-tagged Sall4 (F-Sall4) (mouse) (UniProt Q8BX22); experiment: affinity purification with mass spectrometry; FLAG-affinity purification of F-Sall4, F-Dax1, F-Tcfcp2l1 or F-Esrrb from nuclear extract of ZHBTc4-derived ESC clones, buffer C-100, Benzonase, FLAG peptide elution; two purifications each without and with doxycycline (16 hr, Oct4 removed); hits present in both -Dox purifications

Measured: binding

B1: Esrra (protein, UniProt O08580 1-422)
chain: MSSQVVGIEPLYIKAEPASPDSPKGSSETETEPPVTLASGPAPARCLPGHKEEEDGEGAGSGEQGSGKLVLSSLPKRLCLVCGDVASGYHYGVASCEACKAFFKRTIQGSIEYSCPASNECEITKRRRKACQACRFTKCLRVGMLKEGVRLDRVRGGRQKYKRRPEVDPLPFPGPFPAGPLAVAGGPRKTAPVNALVSHLLVVEPEKLYAMPDPASPDGHLPAVATLCDLFDREIVVTISWAKSIPGFSSLSLSDQMSVLQSVWMEVLVLGVAQRSLPLQDELAFAEDLVLDEEGARAAGLGDLGAALLQLVRRLQALRLEREEYVLLKALALANSDSVHIEDAEAVEQLREALHEALLEYEAGRAGPGGGAERRRAGRLLLTLPLLRQTAGKVLAHFYGVKLEGKVPMHKLFLEMLEAMMD
binds: [1]

B2: Ogt (enzyme, UniProt Q8CGY8 1-1046)
chain: MASSVGNVADSTEPTKRMLSFQGLAELAHREYQAGDFEAAERHCMQLWRQEPDNTGVLLLLSSIHFQCRRLDRSAHFSTLAIKQNPLLAEAYSNLGNVYKERGQLQEAIEHYRHALRLKPDFIDGYINLAAALVAAGDMEGAVQAYVSALQYNPDLYCVRSDLGNLLKALGRLEEAKACYLKAIETQPNFAVAWSNLGCVFNAQGEIWLAIHHFEKAVTLDPNFLDAYINLGNVLKEARIFDRAVAAYLRALSLSPNHAVVHGNLACVYYEQGLIDLAIDTYRRAIELQPHFPDAYCNLANALKEKGSVAEAEDCYNTALRLCPTHADSLNNLANIKREQGNIEEAVRLYRKALEVFPEFAAAHSNLASVLQQQGKLQEALMHYKEAIRISPTFADAYSNMGNTLKEMQDVQGALQCYTRAIQINPAFADAHSNLASIHKDSGNIPEAIASYRTALKLKPDFPDAYCNLAHCLQIVCDWTDYDERMKKLVSIVAEQLEKNRLPSVHPHHSMLYPLSHGFRKAIAERHGNLCLDKINVLHKPPYEHPKDLKLSDGRLRVGYVSSDFGNHPTSHLMQSIPGMHNPDKFEVFCYALSPDDGTNFRVKVMAEANHFIDLSQIPCNGKAADRIHQDGIHILVNMNGYTKGARNELFALRPAPIQAMWLGYPGTSGALFMDYIITDQETSPAEVAEQYSEKLAYMPHTFFIGDHANMFPHLKKKAVIDFKSNGHIYDNRIVLNGIDLKAFLDSLPDVKIVKMKCPDGGDNPDSSNTALNMPVIPMNTIAEAVIEMINRGQIQITINGFSISNGLATTQINNKAATGEEVPRTIIVTTRSQYGLPEDAIVYCNFNQLYKIDPSTLQMWANILKRVPNSVLWLLRFPAVGEPNIQQYAQNMGLPQNRIIFSPVAPKEEHVRRGQLADVCLDTPLCNGHTTGMDVLWAGTPMVTMPGETLASRVAASQLTCLGCLELIAKSRQEYEDIAVKLGTDLEYLKKIRGKVWKQRISSPLFNTKQYTMELERLYLQMWEHYAAGNKPDHMIKPVEVTESA
binds: [2] | [1] | [3] | [4]

B3: Zfp143 (protein, UniProt O70230 1-638)
chain: MLLAQINRDSQGMTEFPGGGMEAQHVTLCLTEAVTVADGDNLENMEGVSLQAVTLADGSTAYIQHNSKDGRLIDGQVIQLEDGSAAYVQHVPIPKSTGDSLRLEDGQAVQLEDGTTAFIHHTSKDSYDQSSLQAVQLEDGTTAYIHHAVQVPQSDTILAIQADGTVAGLHTGDATIDPDTISALEQYAAKVSIDGSDGVTSTGMIGENEQEKKMQIVLQGHATRVTPKSQQSGEKAFRCKYDGCGKLYTTAHHLKVHERSHTGDRPYQCEHSGCGKAFATGYGLKSHFRTHTGEKPYRCSEDNCTKSFKTSGDLQKHIRTHTGERPFKCPIEGCGRSFTTSNIRKVHIRTHTGERPYYCTEPGCGRAFASATNYKNHVRIHTGEKPYVCTVPGCDKRFTEYSSLYKHHVVHTHSKPYNCNHCGKTYKQISTLAMHKRTAHNDTEPIEEEQEAFFEPPPGQGDDVLKGSQITYVTGVDGEDIVSTQVATVTQSGLSQQVTLISQDGTQHVNISQADMQAIGNTITMVTQDGTPITVPTHDAVISSAGTHSVAMVTAEGTEGQQVAIVAQDLAAFHTASSEMGHQQHSHHLVTTETRPLTLVATSNGTQIAVQLGEQPSLEEAIRIASRIQQGETPGLDD
binds: [2] | [5] | [3] | [6]

B4: Tcfcp2l1 (protein, UniProt Q3UNW5 1-479)
chain: MLFWHTQPEHYNQHNSGSYLRDVLALPIFKQEEPQLSPENGARLPPLQYVLCAATSPAVKLHEETLTYLNQGQSYEIRLLENRKLGDFQDLNTKYVKSIIRVVFHDRRLQYTEYQQLEGWRWSRPGDRILDIDIPLSVGILDPRASPTQLNAVEFLWDPSKRASAFIQVHCISTEFTPRKHGGEKGVPFRVQIDTFKQNESGDYSEHLHSASCQIKVFKPKGADRKQKTDREKMEKRTAQEKEKYQPSYETTILTECSPWPDVPYQANNTPSPSYNGSPNSFGLREGNSSPNHPVEPLPLGSDHLLPSASIQDAQQWLHRNRFSQFCWLFASFSGADLLKMSRDDLVQVCGPADGIRLFNAIKGRNVRPKMTIYVCQELEQNQLPLPQKQDDSGDNSLCVYHAIFLEELTTLELTEKIASLYSIPPQHIHRVYRQGPAGIHVVVSNEMVQNFQDESCFILSTLKAESNDGYHIILKCGL
binds: [2] | [5] | [1]

B5: Dax1 (protein, UniProt Q61066 1-472)
chain: MAGEDHPWQGSILYNLLMSAKQKHASQEEREVRLGAQCWGCACGAQPVLGGERLSGGQARSLLYRCCFCGENHPRQGGILYSMLTNARQPSVATQAPRARFGAPCWGCACGSAEPLVGREGLPAGQAPSLLYRCCFCGEEHPRQGSILYSLLTSAQQTHVSREAPEAHRRGEWWQLSYCTQSVGGPEGLQSTQAMAFLYRSYVCGEEQPQQISVASGTPVSADQTPATPQEQPRAPWWDASPGVQRLITLKDPQVVCEAASAGLLKTLRFVKYLPCFQILPLDQQLVLVRSCWAPLLMLELAQDHLHFEMMEIPETNTTQEMLTTRRQETEGPEPAEPQATEQPQMVSAEAGHLLPAAAVQAIKSFFFKCWSLNIDTKEYAYLKGTVLFNPDLPGLQCVKYIEGLQWRTQQILTEHIRMMQREYQIRSAELNSALFLLRFINSDVVTELFFRPIIGAVSMDDMMLEMLCAKL
binds: [2] | [5] | [1] | [3]
